Measured values reported in US9360471B2, “Anti-aging agents and methods to identify them” (priority 2009, dated 2016).
For at least one compound, name, drawing or mass did not settle the structure.

Tests used:
human lymphoblastoid L40 = assay: mitochondrial mass in human lymphoblastoid L40, MitoTracker Green FM and FACS; type: cell-based; conditions: 2-day treatment; 10 μM LY294002, 2 μM DATS, 1 μM BITC, 1 μM PITC, 2 μg/mL resveratrol, 0.03 μM lycopene, 6.7 μM PEITC, 5 mM silibinin, 1.25 mM selenite, 2.5 mM genistein, 250 μg/mL GSE, 50 μg/mL EGCG, 3 mg/mL bilberry extract, 1 μM AITC, 50 pM rapamycin, 250 μM AICAR
Text: Mitochondrial mass was monitored by staining the 60% Ethanol-fixed cells with MitoTracker Green FM prior to FACS analysis.

cdc13-1 cells = assay: cdc13-1 cell survival after cdc13-1p inactivation, colony formation assay; type: cell-based, budding yeast; conditions: 37° C. about 30 hrs; 6.7 μM PEITC, 5 mM silibinin, 1.25 mM selenite, 2.5 mM genistein, 250 μg/mL GSE, 50 μg/mL EGCG, 3 mg/mL bilberry extract
Method: To induce telomere dysfunction, fresh overnight cultures of cdc13-1 were diluted into YEPD medium with the indicated concentrations of glucose or 2-deoxyglucose and incubated at 37° C. for 24 hrs. For colony formation assay, treated cells were then serially diluted 10-fold in H2O and 5 μL was spotted onto regular YEPD plates. The plates were incubated at 24° C. for survived cells to form colonies. The starting number of live-cells was also counted by this colony formation assay. (B) Nitrogen restriction inhibits cell death induced by cdc13-1p inactivation as monitored by a colony formation assay. Cells were incubated in synthetic medium (SC) or SC—N (SC without amino acids and (NH4)2SO4 as nitrogen sources) at 37° C. for 24 hrs. The number of survived cells was counted using colony formation assay as described in 1A. (C-D) Inhibition of TOR by low doses of rapamycin (labeled as Rapa) (below growth inhibition concentration) can prevent cell death induced by cdc13-1p inactivation. […] The number of survived cells was measured by the colony formation assay as in 1A. […] Cell Density (OD595) was measured at the indicated time points and plotted against the time. (E) Deterioration of growth arrested cdc13-1 cells can be delayed by low dose of rapamycin (1 nM) and glucose restriction (0.5%) as measured by counting surviving cells using the colony formation assay. […]
(A) Cells were incubated at 37° C. to inactivated cdc13-1p, in YEPD medium, YEPD+1 nM rapamycin or YEPD with 0.5% glucose. […] After being washed again, cells were stained with 100 μg/mL propidium iodide for 20 min in the dark prior to FACS (Fluorescence activated cell sorter) analysis. […] Surviving cells were counted using the colony formation assay.
The 6.7 μM PEITC, 5 mM silibinin, 1.25 mM selenite, 2.5 mM genistein, 250 μg/mL grape seed extract (GSE), 50 μg/mL EGCG, and 3 mg/mL bilberry extract (BE) were incubated with cells at 37° C. for about 30 hrs. The cell survival was measured by the colony formation assay at a permissive temperature 24° C. […]

Compound: O=c1cc(N2CCOCC2)oc2c(-c3ccccc3)cccc12 [LY294002]
- mitochondrial mass (human lymphoblastoid L40): increased

Compound: COc1cc(C2Oc3cc([C@H]4Oc5cc(O)cc(O)c5C(=O)[C@@H]4O)ccc3OC2CO)ccc1O (stereo partly drawn) [silibinin]
- cell death triggered by inactivation of cdc13-1p (colony formation assay) (cdc13-1 cells): inhibited cell death
- mitochondrial mass (human lymphoblastoid L40): increased
